The experiment concerns ARPE-19 cells. Kind of experiment: Fibronectin deposition assay in TGFβ-stimulated ARPE-19 cells. The following applies: Homo sapiens, ARPE-19 cells stimulated with TGFβ, incubated 96 hours. The experiment is classed as cell-based. The protocol: ARPE-19 cells were plated into 96-well plates (10,000 cells/well) and allowed to attach. Media was removed and replaced with the media specified in the “Cell Culture” section above, without FBS. Cells were treated for four days±TGFβ (10 ng/mL) and 10 μM loxapine. Cells were fixed with 10% neutral buffered formalin (Sigma-Aldrich) for 15 minutes. Cells were permeabilized with 0.25% Triton X-100 (Sigma-Aldrich) and blocked with 1% BSA for 1 hour. Cells were incubated with mouse monoclonal IgG3 primary antibodies against fibronectin (Santa Cruz Biotechnology), which were diluted 1:400 in 0.25% Triton X-100 (Sigma-Aldrich) with 1% BSA. Cells were incubated with primary antibodies either in 4° C. overnight or at room temperature for 2 hours. […] Immunofluorescence was measured using a Cytation 5 imaging reader (BioTek). […]
The antifibrotic activity of novel D2 dopamine receptor antagonists solnitropine and solupine were evaluated using the fibronectin deposition assay described in Example 1 (FIGS. 6A and 6B). The antifibrotic activity of D2 dopamine receptor antagonists methotrexate, spiperone, fluspirilene, penfluridol, droperidol, timiperone, benperidol, and lurasidone were evaluated using the fibronectin deposition assay described in Example 1 (FIG. 9A9C). […]

As a reminder, the IC50 is the concentration at which inhibition is half-maximal. Low values mean inhibition by little substance, high ones a need for much substance.

Regarding `CN1CC2c3ccccc3Oc3ccc(Cl)cc3C2C1` (centres unmarked) [asenapine], the half-maximal inhibitory concentration (IC50) is 5 to 10 µM. Regarding `O=C(CCCN1CCC2(CC1)C(=O)NCN2c1ccccc1)c1ccc(F)cc1` [spiperone], the IC50 lay in the range of 5 to 10 µM.
